The supplement of paper PMC8728848
This is one part of the list.

How the values were obtained:
Assay in all cases: glycan array binding signal (z-score within array); higher = stronger binding
Settings in all cases: glycan notation: IUPAC condensed, linker removed
[1] = target: Gal(b1-4)GlcNAc(b1-3)Gal(b1-4)GlcNAc(b1-3)Gal(b1-4)GlcNAc(b1-2)Man(a1-3)[Gal(b1-4)GlcNAc(b1-3)Gal(b1-4)GlcNAc(b1-3)Gal(b1-4)GlcNAc(b1-2)Man(a1-6)]Man(b1-4)GlcNAc(b1-4)GlcNAc
Summary of the method: (§1)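 Glycan array data were curated from 3228 arrays in the Consortium for Functional Glycomics database and kept only where the protein sequence was available. Glycan names were converted to IUPAC-condensed notation, and columns mapping to the same glycan were averaged. The binding signal is a within-array Z-score, averaged across arrays of the same protein sequence at different concentrations or buffers and across linkers. Negative Z-scores can be read as non-binding.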

[2] = target: Gal(b1-4)GlcNAc(b1-3)Gal(b1-4)GlcNAc(b1-3)Gal(b1-4)GlcNAc(b1-2)Man(a1-3)[Gal(b1-4)GlcNAc(b1-3)Gal(b1-4)GlcNAc(b1-3)Gal(b1-4)GlcNAc(b1-2)Man(a1-6)]Man(b1-4)GlcNAc(b1-4)[Fuc(a1-6)]GlcNAc
Summary of the method: as §1

[3] = target: Gal(b1-4)GlcNAc(b1-3)Gal(b1-4)GlcNAc(b1-3)Gal(b1-4)GlcNAc(b1-2)[Gal(b1-4)GlcNAc(b1-3)Gal(b1-4)GlcNAc(b1-3)Gal(b1-4)GlcNAc(b1-6)]Man(a1-6)[Gal(b1-4)GlcNAc(b1-3)Gal(b1-4)GlcNAc(b1-3)Gal(b1-4)GlcNAc(b1-2)Man(a1-3)]Man(b1-4)GlcNAc(b1-4)[Fuc(a1-6)]GlcNAc
Summary of the method: as §1

[4] = target: Gal(b1-4)GlcNAc(b1-3)Gal(b1-4)GlcNAc(b1-3)Gal(b1-4)GlcNAc(b1-3)Gal(b1-4)GlcNAc(b1-2)Man(a1-3)[Gal(b1-4)GlcNAc(b1-3)Gal(b1-4)GlcNAc(b1-3)Gal(b1-4)GlcNAc(b1-3)Gal(b1-4)GlcNAc(b1-2)Man(a1-6)]Man(b1-4)GlcNAc(b1-4)GlcNAc
Summary of the method: as §1

[5] = target: Gal(b1-4)GlcNAc(b1-3)Gal(b1-4)GlcNAc(b1-3)Gal(b1-4)GlcNAc(b1-3)Gal(b1-4)GlcNAc(b1-2)Man(a1-3)[Gal(b1-4)GlcNAc(b1-3)Gal(b1-4)GlcNAc(b1-3)Gal(b1-4)GlcNAc(b1-3)Gal(b1-4)GlcNAc(b1-2)Man(a1-6)]Man(b1-4)GlcNAc(b1-4)[Fuc(a1-6)]GlcNAc
Summary of the method: as §1

[6] = target: Gal(b1-4)GlcNAc(b1-3)Gal(b1-4)GlcNAc(b1-3)Gal(b1-4)GlcNAc(b1-3)Gal(b1-4)GlcNAc(b1-2)[Gal(b1-4)GlcNAc(b1-3)Gal(b1-4)GlcNAc(b1-3)Gal(b1-4)GlcNAc(b1-3)Gal(b1-4)GlcNAc(b1-6)]Man(a1-6)[Gal(b1-4)GlcNAc(b1-3)Gal(b1-4)GlcNAc(b1-3)Gal(b1-4)GlcNAc(b1-3)Gal(b1-4)GlcNAc(b1-2)Man(a1-3)]Man(b1-4)GlcNAc(b1-4)[Fuc(a1-6)]GlcNAc
Summary of the method: as §1

[7] = target: Gal(b1-4)GlcNAc(b1-3)Gal(b1-4)GlcNAc(b1-3)Gal(b1-4)GlcNAc(b1-3)Gal(b1-4)GlcNAc(b1-3)Gal(b1-4)GlcNAc(b1-2)Man(a1-3)[Gal(b1-4)GlcNAc(b1-3)Gal(b1-4)GlcNAc(b1-3)Gal(b1-4)GlcNAc(b1-3)Gal(b1-4)GlcNAc(b1-3)Gal(b1-4)GlcNAc(b1-2)Man(a1-6)]Man(b1-4)GlcNAc(b1-4)GlcNAc
Summary of the method: as §1

[8] = target: Gal(b1-4)GlcNAc(b1-3)Gal(b1-4)GlcNAc(b1-3)Gal(b1-4)GlcNAc(b1-3)Gal(b1-4)GlcNAc(b1-3)Gal(b1-4)GlcNAc(b1-2)Man(a1-3)[Gal(b1-4)GlcNAc(b1-3)Gal(b1-4)GlcNAc(b1-3)Gal(b1-4)GlcNAc(b1-3)Gal(b1-4)GlcNAc(b1-3)Gal(b1-4)GlcNAc(b1-2)Man(a1-6)]Man(b1-4)GlcNAc(b1-4)[Fuc(a1-6)]GlcNAc
Summary of the method: as §1

[9] = target: Gal(b1-4)GlcNAc(b1-3)Gal(b1-4)GlcNAc(b1-3)Gal(b1-4)GlcNAc(b1-3)Gal(b1-4)GlcNAc(b1-3)Gal(b1-4)GlcNAc(b1-2)[Gal(b1-4)GlcNAc(b1-3)Gal(b1-4)GlcNAc(b1-3)Gal(b1-4)GlcNAc(b1-3)Gal(b1-4)GlcNAc(b1-3)Gal(b1-4)GlcNAc(b1-6)]Man(a1-6)[Gal(b1-4)GlcNAc(b1-3)Gal(b1-4)GlcNAc(b1-3)Gal(b1-4)GlcNAc(b1-3)Gal(b1-4)GlcNAc(b1-3)Gal(b1-4)GlcNAc(b1-2)Man(a1-3)]Man(b1-4)GlcNAc(b1-4)[Fuc(a1-6)]GlcNAc
Summary of the method: as §1

[10] = target: Gal(b1-4)GlcNAc(b1-3)Gal(b1-4)GlcNAc(b1-3)Gal(b1-4)GlcNAc(b1-3)Gal(b1-4)GlcNAc(b1-3)Gal(b1-4)GlcNAc(b1-3)Gal(b1-4)GlcNAc(b1-2)Man(a1-3)[Gal(b1-4)GlcNAc(b1-3)Gal(b1-4)GlcNAc(b1-3)Gal(b1-4)GlcNAc(b1-3)Gal(b1-4)GlcNAc(b1-3)Gal(b1-4)GlcNAc(b1-3)Gal(b1-4)GlcNAc(b1-2)Man(a1-6)]Man(b1-4)GlcNAc(b1-4)GlcNAc
Summary of the method: as §1

[11] = target: Gal(b1-4)GlcNAc(b1-3)Gal(b1-4)GlcNAc(b1-3)GalNAc
Summary of the method: as §1

[12] = target: Gal(b1-4)GlcNAc(b1-3)Gal(b1-4)GlcNAc(b1-3)[Gal(b1-4)GlcNAc(b1-3)Gal(b1-4)GlcNAc(b1-6)]GalNAc
Summary of the method: as §1

[13] = target: Gal(b1-4)GlcNAc(b1-3)Gal(b1-4)GlcNAc(b1-6)[Gal(b1-3)]GalNAc
Summary of the method: as §1

[14] = target: Gal(b1-4)GlcNAc(b1-3)Gal(b1-4)[Fuc(a1-3)GlcNAc(b1-6)]Gal(b1-4)Glc
Summary of the method: as §1

[15] = target: Gal(b1-4)GlcNAc(b1-3)Gal(b1-4)[Fuc(a1-3)]GlcNAc(b1-3)Gal(b1-4)[Fuc(a1-3)]GlcNAc
Summary of the method: as §1

[16] = target: Gal(b1-4)GlcNAc(b1-3)GalNAc
Summary of the method: as §1

[17] = target: Gal(b1-4)GlcNAc(b1-3)[Fuc(a1-3)GlcNAc(b1-6)]Gal(b1-4)Glc
Summary of the method: as §1

[18] = target: Gal(b1-4)GlcNAc(b1-3)[Gal(b1-4)GlcNAc(b1-6)]Gal(b1-4)GlcNAc
Summary of the method: as §1

[19] = target: Gal(b1-4)GlcNAc(b1-3)[Gal(b1-4)GlcNAc(b1-6)]GalNAc
Summary of the method: as §1

[20] = target: Gal(b1-4)GlcNAc(b1-3)[GlcNAc(b1-6)]Gal(b1-4)GlcNAc
Summary of the method: as §1

[21] = target: Gal(b1-4)GlcNAc(b1-6)Gal(b1-4)GlcNAc
Summary of the method: as §1

[22] = target: Gal(b1-4)GlcNAc(b1-6)GalNAc
Summary of the method: as §1

B1: Gal 10 (Homo sapiens), Q05315 (protein)
chain: MSLLPVPYTEAASLSTGSTVTIKGRPLVCFLNEPYLQVDFHTEMKEESDIVFHFQVCFGRRVVMNSREYGAWKQQVESKNMPFQDGQEFELSISVLPDKYQVMVNGQSSYTFDHRIKPEAVKMVQVWRDISLTKFNVSYLKR
- glycan array binding signal (z-score) [1]: 0.745
- glycan array binding signal (z-score) [2]: 0.386
- glycan array binding signal (z-score) [3]: 5.64
- glycan array binding signal (z-score) [4]: 1.01
- glycan array binding signal (z-score) [5]: -0.222
- glycan array binding signal (z-score) [6]: -0.122
- glycan array binding signal (z-score) [7]: 3.23
- glycan array binding signal (z-score) [8]: 0.227
- glycan array binding signal (z-score) [9]: -0.151
- glycan array binding signal (z-score) [10]: -0.119
- glycan array binding signal (z-score) [11]: -0.288
- glycan array binding signal (z-score) [12]: -0.147
- glycan array binding signal (z-score) [13]: 3.3
- glycan array binding signal (z-score) [14]: 0.658
- glycan array binding signal (z-score) [15]: 0.655
- glycan array binding signal (z-score) [16]: -0.548
- glycan array binding signal (z-score) [17]: -0.497
- glycan array binding signal (z-score) [18]: -0.643
- glycan array binding signal (z-score) [19]: -0.376
- glycan array binding signal (z-score) [20]: 0.216
- glycan array binding signal (z-score) [21]: -0.659
- glycan array binding signal (z-score) [22]: -0.462
